These are yes or no findings as the source states them, for the method shown. In cells and extracts the contact can be indirect. Some binding calls cover weakened binding; strength is not graded here.
Assays:
[1] = target: Flag-MYBL2 (UniProt P10244); assay: co-IP; DLD1 cells transfected with empty vector or Flag-MYBL2 for 48 h, lysed in IP lysis buffer; ANTI-FLAG M2 magnetic beads; western blotting for RBBP4, LIN9, TAF15
[2] = target: GST-TAF15 recombinant protein (UniProt Q92804); assay: pull-down; whole lysates of HCT116 cells transfected with Flag-EV or Flag-MYBL2 pulled down by GST-TAF15 or GST; immunoblotting; only the target purified

Sequences of proteins named here, by UniProt entry; tags and fusion partners are left off.
UniProt P10244: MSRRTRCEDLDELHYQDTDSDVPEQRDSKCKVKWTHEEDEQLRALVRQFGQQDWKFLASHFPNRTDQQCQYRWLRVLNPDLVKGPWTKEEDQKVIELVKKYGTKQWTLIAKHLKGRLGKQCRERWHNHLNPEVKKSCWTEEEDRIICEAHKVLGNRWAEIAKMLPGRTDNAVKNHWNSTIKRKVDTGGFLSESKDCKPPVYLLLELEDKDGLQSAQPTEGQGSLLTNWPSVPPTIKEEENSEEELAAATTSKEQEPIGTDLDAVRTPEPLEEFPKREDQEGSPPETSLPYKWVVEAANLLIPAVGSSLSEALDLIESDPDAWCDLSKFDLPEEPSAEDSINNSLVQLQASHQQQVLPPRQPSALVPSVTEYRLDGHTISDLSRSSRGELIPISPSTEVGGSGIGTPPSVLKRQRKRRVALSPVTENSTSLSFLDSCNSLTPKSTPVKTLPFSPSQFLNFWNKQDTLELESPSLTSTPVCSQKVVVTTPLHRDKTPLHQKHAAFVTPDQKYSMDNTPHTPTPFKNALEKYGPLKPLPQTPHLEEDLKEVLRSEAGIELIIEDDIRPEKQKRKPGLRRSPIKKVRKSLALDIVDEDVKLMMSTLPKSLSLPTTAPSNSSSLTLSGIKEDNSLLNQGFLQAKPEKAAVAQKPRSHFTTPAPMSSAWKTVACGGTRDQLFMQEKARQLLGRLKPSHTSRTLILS
UniProt Q92804: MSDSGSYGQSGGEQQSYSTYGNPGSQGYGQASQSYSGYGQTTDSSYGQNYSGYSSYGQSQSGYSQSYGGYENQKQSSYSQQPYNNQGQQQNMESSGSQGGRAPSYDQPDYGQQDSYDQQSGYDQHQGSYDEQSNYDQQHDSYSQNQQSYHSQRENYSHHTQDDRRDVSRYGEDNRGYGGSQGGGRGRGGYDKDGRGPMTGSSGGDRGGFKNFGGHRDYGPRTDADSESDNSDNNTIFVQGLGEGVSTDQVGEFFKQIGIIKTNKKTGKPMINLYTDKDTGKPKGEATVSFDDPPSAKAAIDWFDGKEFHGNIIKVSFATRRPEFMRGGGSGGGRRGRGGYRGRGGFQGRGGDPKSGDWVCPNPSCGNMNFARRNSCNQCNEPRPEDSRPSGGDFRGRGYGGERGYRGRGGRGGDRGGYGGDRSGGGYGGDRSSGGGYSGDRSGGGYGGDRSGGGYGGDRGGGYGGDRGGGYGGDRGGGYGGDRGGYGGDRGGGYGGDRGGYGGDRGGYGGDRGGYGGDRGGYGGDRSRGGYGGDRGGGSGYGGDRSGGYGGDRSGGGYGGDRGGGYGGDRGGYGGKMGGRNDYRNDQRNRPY
UniProt Q09028: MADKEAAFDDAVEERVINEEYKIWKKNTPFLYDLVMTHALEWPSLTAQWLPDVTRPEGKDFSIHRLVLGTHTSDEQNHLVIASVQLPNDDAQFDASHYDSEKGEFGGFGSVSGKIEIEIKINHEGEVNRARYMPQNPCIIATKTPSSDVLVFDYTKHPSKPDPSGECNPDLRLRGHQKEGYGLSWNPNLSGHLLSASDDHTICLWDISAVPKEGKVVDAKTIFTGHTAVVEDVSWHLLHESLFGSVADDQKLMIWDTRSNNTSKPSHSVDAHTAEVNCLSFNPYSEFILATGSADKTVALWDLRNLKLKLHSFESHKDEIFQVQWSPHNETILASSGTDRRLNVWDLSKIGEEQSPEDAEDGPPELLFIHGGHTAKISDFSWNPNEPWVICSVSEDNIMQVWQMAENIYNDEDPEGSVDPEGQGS
UniProt Q5TKA1: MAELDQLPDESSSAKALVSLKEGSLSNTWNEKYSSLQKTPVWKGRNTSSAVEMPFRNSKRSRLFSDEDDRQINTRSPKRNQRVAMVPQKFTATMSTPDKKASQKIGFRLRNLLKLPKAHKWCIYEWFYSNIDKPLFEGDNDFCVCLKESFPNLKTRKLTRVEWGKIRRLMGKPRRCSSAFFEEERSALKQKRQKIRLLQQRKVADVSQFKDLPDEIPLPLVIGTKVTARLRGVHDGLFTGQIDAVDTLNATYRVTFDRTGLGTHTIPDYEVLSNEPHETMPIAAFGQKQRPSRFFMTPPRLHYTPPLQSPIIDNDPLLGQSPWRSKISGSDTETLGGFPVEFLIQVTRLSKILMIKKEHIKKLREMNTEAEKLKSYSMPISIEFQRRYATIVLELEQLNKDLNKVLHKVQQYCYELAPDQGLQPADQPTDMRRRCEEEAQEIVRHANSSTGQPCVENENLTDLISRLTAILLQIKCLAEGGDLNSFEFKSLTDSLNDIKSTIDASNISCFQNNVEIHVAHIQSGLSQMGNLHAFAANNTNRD

Substance	binding [1]	binding [2]
RBBP4 (from UniProt Q09028 1-425)	binds	–
Flag-MYBL2 (from UniProt P10244 1-700)	–	binds
LIN9 (from UniProt Q5TKA1 1-542)	binds	–

From publication PMC8263627
